Laboratory results: PubChem BioAssay AID1259308 (NCATS, 2017)
Assay: 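Genes whose loss raises luciferase production in HEK293 cells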 (primary screen). System: human HEK293 embryonic kidney cells stably expressing firefly luciferase (HEK-CMV-Luc2-Hygro). Reagent: single siRNA against human genes, 0.8 pmol siRNA per well. Timing: 72 h. Measured: 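Luciferase light (ONE-Glo) measured on one replicate plate set and viability (CellTiter-Glo) on the other, scaled to a negative control siRNA, with robust z-scores and luciferase per cell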. Direction: total luciferase, z-score and total luciferase, % of control: higher = more reporter protein produced; luciferase per cell, z-score: higher = more reporter output per viable cell; viable cells, % of control: higher = more viable cells. Rule for the call: 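An siRNA counts as active if its total luciferase robust z-score exceeds 3; genes with two or more such siRNAs out of three were retested with fresh siRNAs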. Calls: active = raised luciferase; inactive = no rise.
The deposit covers about 59,000 reagents; below is a part drawn at random. In the full data, about 1,510 (2.6%) are marked active. 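Calls use total luciferase alone and ignore viability, so some active siRNAs may act by altering cell number.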 The numbers tell different reagents against one gene apart.

The first 3 records, to show the layout:
target | reagent no. | total luciferase, z-score | total luciferase, % of control | luciferase per cell, z-score | viable cells, % of control | outcome
HOXA2 (GeneID 3199) | 1 | -0.737 | 67.2 | -0.179 | 78.8 | inactive
HOXA2 (GeneID 3199) | 2 | -0.639 | 69.2 | -0.851 | 96.7 | inactive
HOXA2 (GeneID 3199) | 3 | 1.15 | 105 | 1.27 | 83.8 | inactive

The listing, from the start:
target | reagent no. | total luciferase, z-score | total luciferase, % of control | luciferase per cell, z-score | viable cells, % of control | outcome
HOXA2 (GeneID 3199) | 1 | -0.737 | 67.2 | -0.179 | 78.8 | inactive
HOXA2 (GeneID 3199) | 2 | -0.639 | 69.2 | -0.851 | 96.7 | inactive
HOXA2 (GeneID 3199) | 3 | 1.15 | 105 | 1.27 | 83.8 | inactive
GNL3L (GeneID 54552) | 1 | 0.949 | 101 | 1.28 | 80.5 | inactive
GNL3L (GeneID 54552) | 2 | -0.246 | 77 | -0.2 | 90.7 | inactive
GNL3L (GeneID 54552) | 3 | -1.69 | 48.3 | -1.32 | 76.3 | inactive
RP9 (GeneID 6100) | 1 | -0.52 | 71.6 | -0.615 | 94 | inactive
RP9 (GeneID 6100) | 2 | 0.173 | 85.3 | 0.971 | 73.8 | inactive
RP9 (GeneID 6100) | 3 | -1.48 | 52.5 | -1.47 | 86.6 | inactive
BAIAP2L1 (GeneID 55971) | 1 | 1.12 | 104 | 1.33 | 82 | inactive
BAIAP2L1 (GeneID 55971) | 2 | 1.41 | 110 | 0.513 | 107 | inactive
BAIAP2L1 (GeneID 55971) | 3 | -0.781 | 66.3 | -0.943 | 95 | inactive
HLA-DQA2 (GeneID 3118) | 1 | -1.23 | 57.4 | -0.647 | 76.1 | inactive
HLA-DQA2 (GeneID 3118) | 2 | 0.419 | 90.2 | 2.12 | 57.7 | inactive
HLA-DQA2 (GeneID 3118) | 3 | 1.08 | 103 | 1.22 | 83.9 | inactive
GNG3 (GeneID 2785) | 1 | -0.00827 | 81.7 | -0.563 | 106 | inactive
GNG3 (GeneID 2785) | 2 | -0.19 | 78.1 | -0.0229 | 87.8 | inactive
GNG3 (GeneID 2785) | 3 | 0.648 | 94.8 | 0.832 | 85.1 | inactive
SNX8 (GeneID 29886) | 1 | -0.0728 | 80.4 | 0.0569 | 88.5 | inactive
SNX8 (GeneID 29886) | 2 | -0.151 | 78.9 | -0.631 | 104 | inactive
SNX8 (GeneID 29886) | 3 | 2.9 | 140 | 2.65 | 77.5 | inactive
YJU2B (GeneID 81576) | 1 | -0.56 | 70.8 | -1.32 | 112 | inactive
YJU2B (GeneID 81576) | 2 | 0.654 | 94.9 | 0.804 | 85.8 | inactive
YJU2B (GeneID 81576) | 3 | 0.0427 | 82.7 | -0.297 | 100 | inactive
EIF4B (GeneID 1975) | 1 | -1.04 | 61.2 | -0.828 | 85 | inactive
EIF4B (GeneID 1975) | 2 | -1.02 | 61.7 | -1.19 | 94.3 | inactive
EIF4B (GeneID 1975) | 3 | -0.271 | 76.5 | -0.402 | 95 | inactive
GPR82 (GeneID 27197) | 1 | -0.388 | 74.2 | -0.155 | 86.3 | inactive
GPR82 (GeneID 27197) | 2 | -0.832 | 65.3 | -1.44 | 107 | inactive
GPR82 (GeneID 27197) | 3 | -0.966 | 62.7 | -1.17 | 95.3 | inactive
LOC727925 (retired record) (GeneID 727925) | 1 | -1.14 | 59.2 | -0.566 | 76.8 | inactive
LOC727925 (retired record) (GeneID 727925) | 2 | -0.928 | 63.4 | -0.0549 | 71.9 | inactive
LOC727925 (retired record) (GeneID 727925) | 3 | -0.499 | 72 | -0.441 | 90.3 | inactive
NHS (GeneID 4810) | 1 | 1.24 | 106 | 0.832 | 95.6 | inactive
NHS (GeneID 4810) | 2 | 0.194 | 85.8 | 0.057 | 94.4 | inactive
NHS (GeneID 4810) | 3 | -0.517 | 71.6 | -0.907 | 102 | inactive
CTXN1 (GeneID 404217) | 1 | 2.67 | 135 | 2.14 | 85.9 | inactive
CTXN1 (GeneID 404217) | 2 | 0.69 | 95.6 | -0.103 | 110 | inactive
CTXN1 (GeneID 404217) | 3 | -1.1 | 59.9 | 0.592 | 57.3 | inactive
